# Experimental data: PMC10810270, “Molecular mechanism of specific DNA sequence recognition by NRF1” (Nucleic Acids Research, 2023)
# No constants are given. Whether binding was seen depends on the method and setting.
# Target: NRF1 (aa 177–284) (human) (UniProt Q16656)
# Experiment: SEC-MALS; HPLC-MALS, WTC-015S5 column, 50 mM PBS and 150 mM NaCl, 0.5 mL/min; oligomeric state of NRF1 fragments without DNA; both purified
binder,measurement,value
"NRF1 (aa 177–284) (domain or fragment, UniProt Q16656 177-284) APQEVNSELPPLTIDGIPVSVDKMTQAQLRAFIPEMLKYSTGRGKPGWGKESCKPIWWPEDIPWANVRSDVRTEEQKQRVSWTQALRTIVKNCYKQHGREDLLYAFED",binding,no binding
